Assay results: patent US20210317456
A negative result means that nothing was seen under these conditions. For part of these data: Construct, isoform or probe ends are uncertain for at least one entry.

Chains of the proteins cited; added tags and fusions are not shown. A line that says so, or that is headed by a name, gives the form on record, which may keep a tag or linker.
IgG2-Fc (Homo sapiens), one chain, as listed by the source: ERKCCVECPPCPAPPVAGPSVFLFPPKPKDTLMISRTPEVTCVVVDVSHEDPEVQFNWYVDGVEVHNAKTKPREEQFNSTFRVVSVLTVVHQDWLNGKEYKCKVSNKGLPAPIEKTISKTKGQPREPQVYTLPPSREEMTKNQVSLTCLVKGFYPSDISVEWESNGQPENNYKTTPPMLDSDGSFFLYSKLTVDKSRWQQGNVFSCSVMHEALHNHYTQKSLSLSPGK
IgG4-Fc (Homo sapiens), one chain, as listed by the source: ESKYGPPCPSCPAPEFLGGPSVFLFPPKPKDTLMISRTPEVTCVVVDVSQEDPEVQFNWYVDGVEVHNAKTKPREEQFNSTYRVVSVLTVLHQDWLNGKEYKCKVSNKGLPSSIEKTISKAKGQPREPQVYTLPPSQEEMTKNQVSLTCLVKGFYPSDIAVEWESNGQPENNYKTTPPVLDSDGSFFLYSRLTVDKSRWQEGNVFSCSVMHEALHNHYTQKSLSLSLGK

How the values were obtained:
[1] = system: Total IgG (goat) (Capra hircus); assay: pull-down; settings: P = NapdU, Zorbax beads, SB18, 37C, single-stranded DNA
[2] = system: Total IgG (mouse) (Mus musculus); assay: pull-down; settings: P = NapdU, Zorbax beads, SB18, 37C, single-stranded DNA
IgM (cow) (Bos taurus) = assay: pull-down; settings: P = NapdU, Zorbax beads, SB18, 37C, single-stranded DNA
IgG2-Fc (Homo sapiens) [3] = assay: pull-down; settings: P = NapdU; 37C, bead partitioning; single-stranded DNA; variant of 5406-56_3
[4] = system: Total IgG (rabbit) (Oryctolagus cuniculus); assay: pull-down; settings: P = NapdU; Zorbax beads, SB18, 37C; single-stranded DNA; variant of 5406-56_3
[5] = system: Total IgG (sheep) (Ovis aries); assay: pull-down; settings: P = NapdU, Zorbax beads, SB18, 37C, single-stranded DNA
[6] = system: IgG1 (mouse) (Mus musculus); assay: pull-down; settings: Protein L beads, single-stranded DNA
[7] = system: Total IgG (cow) (Bos taurus); assay: pull-down; settings: P = NapdU, Zorbax beads, SB18, 37C, single-stranded DNA
[8] = system: IgG2-Kappa (Homo sapiens); assay: pull-down; settings: Protein L beads, single-stranded DNA
[9] = system: Total IgG (goat) (Capra hircus); assay: filter binding; settings: Zorbax, SB18, 37 C, label: 32P, single-stranded DNA
[10] = system: Total IgG (sheep) (Ovis aries); assay: filter binding; settings: Zorbax, SB18, 37 C, label: 32P, single-stranded DNA
[11] = system: Total IgG (cow) (Bos taurus); assay: filter binding; settings: Zorbax, SB18, 37 C, label: 32P, single-stranded DNA
[12] = system: Total IgG (monkey) (monkey); assay: filter binding; settings: n (P) = NapdU; Zorbax, SB18, 37 C; label: 32P; single-stranded DNA
IgG2-Fc (Homo sapiens) [13] = assay: filter binding; settings: n (P) = NapdU; Zorbax, SB18, 37 C; label: 32P; single-stranded DNA
[14] = system: Total IgG (rabbit) (Oryctolagus cuniculus); assay: filter binding; settings: n (P) = NapdU; Zorbax, SB18, 37 C; label: 32P; single-stranded DNA
IgD (Homo sapiens) = assay: filter binding; settings: n (P) = NapdU; Zorbax, SB18, 37 C; label: 32P; single-stranded DNA
IgG4-Fc (Homo sapiens) = assay: filter binding; settings: n (P) = NapdU; Zorbax, SB18, 37 C; label: 32P; single-stranded DNA
[15] = P = NapdU, SB17, 37C, variant of 5406-56_3
[16] = n (P) = NapdU, SB17, 37 C, label: 32P

Measured: binding result

GGTACGATTTTCAGTTGGATCCAGTAC [5406-56_48]
no binding: [1]; variant of 5406-56_3 | [2]; variant of 5406-56_3 | IgM (cow) (Bos taurus); variant of 5406-56_3 | IgG2-Fc (Homo sapiens) [3] | [4] | [5]; variant of 5406-56_3 | [6]; [15] | [7]; variant of 5406-56_3 | [8]; [15]

TGGCGAACTCCCTGAATGCTCTTGTCTT [14125-144_30]
no binding: [1]; variant of 14125-144_3 | [2]; variant of 14125-144_3 | IgM (cow) (Bos taurus); variant of 14125-144_3 | [5]; variant of 14125-144_3 | [6]; P = NapdU, SB17, 37C, variant of 14125-144_3 | [7]; variant of 14125-144_3

GCCTGCACGATGGCGAACTCCCTGAATGCTCTTGTCTTAAGTCCCCAACA [14125-144_3]
no binding: [6]; [16] | [9]; n (P) = NapdU | [10]; n (P) = NapdU | [11]; n (P) = NapdU

CCTCCATACGGTACGATTTTCAGTTGGATCCAGTACCTGGCTGGAGAGAA [5406-56_3]
no binding: [6]; [16] | [8]; [16] | [9]; n (P) = NapdU | [12] | IgG2-Fc (Homo sapiens) [13] | [14] | [10]; n (P) = NapdU | IgD (Homo sapiens) | IgG4-Fc (Homo sapiens) | [11]; n (P) = NapdU

CGGCACTCCACATCCAAGACTGCGGTTACCTTGTAGGCGATTATGGGCAG [5334-8_3]
no binding: [6]; n (P) = 2NapdU, SB17, 37 C, label: 32P | [9]; n (P) = 2NapdU | [10]; n (P) = 2NapdU | [11]; n (P) = 2NapdU
